# Measurements reported in PubChem BioAssay AID602196 (INSERM, 2012)
# Assay: 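Genes whose knock-down alters cisplatin killing of lung cancer cells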
# System: human A549 lung cancer cells
# Reagents: siRNA pair against human genes
# Timing: 48 h transfection before cisplatin; time from cisplatin to read-out not stated
# Conditions: cisplatin at a dose killing half of control-siRNA cells; exact dose and duration not given
# Read-out: 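Cisplatin cell death as a shift from the 50% death seen with control siRNA; siRNAs toxic or growth-blocking alone scored 0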
# Direction: two-siRNA summed score (-2 to +2): higher = both siRNAs protect from cisplatin killing; -2 means both sensitise; mean protection from cisplatin (shift in death): higher = protection from cisplatin killing
# Call rule: 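siRNAs harmful alone (LDH or WST-1) get 0; others get +1 for less and -1 for more cisplatin killing; genes are active when the two siRNAs give the same sign, summing to ±2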
# Calls: active = both siRNAs shift cisplatin killing the same way; inactive = no consistent shift, or siRNA harmful alone
# Here is a random part of about 23,000 deposited reagents. 455 of them (2%) count as active. 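Active includes both protection and sensitisation; some change values fall well beyond the stated -50 to +50 range.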 Reagents against one gene are numbered here. Not all columns of the deposit are shown. The record does not give: the amount of reagent.
gene,reagent,two-siRNA summed score (-2 to +2),mean protection from cisplatin (shift in death) (%),Outcome
LOC255324,1,0,0.8,inactive
KRTAP8-1,1,1,12.8,inactive
MAP3K6,1,1,13.2,inactive
CHMP6,1,1,16.6,inactive
PUDP,1,1,17.1,inactive
INPPL1,1,0,5.2,inactive
GABARAPL1,1,0,8.7,inactive
RELCH,1,0,1.1,inactive
LOC442388,1,0,13.4,inactive
RECQL,1,-1,-3.1,inactive
LOC392159,1,0,12.1,inactive
ATAD3A,1,0,2.5,inactive
LOC401256,1,0,3.6,inactive
COL5A2,1,0,4.8,inactive
LOC344760,1,0,-2.3,inactive
TAB3,1,0,8.2,inactive
MARK2P21,1,1,0.3,inactive
IFIT2,1,0,-10.5,inactive
LINC00908,1,0,4.8,inactive
LOC442449,1,0,7.7,inactive
SLC6A16,1,-1,-6.1,inactive
MMAA,1,1,9.3,inactive
PIGYP1,1,0,1.1,inactive
SLC41A1,1,0,2.9,inactive

Part of the list above, reformatted:
PUDP — two-siRNA summed score (-2 to +2) = 1; mean protection from cisplatin (shift in death) (%) = 17.1; Outcome = inactive
INPPL1 — two-siRNA summed score (-2 to +2) = 0; mean protection from cisplatin (shift in death) (%) = 5.2; Outcome = inactive
GABARAPL1 — two-siRNA summed score (-2 to +2) = 0; mean protection from cisplatin (shift in death) (%) = 8.7; Outcome = inactive
RELCH — two-siRNA summed score (-2 to +2) = 0; mean protection from cisplatin (shift in death) (%) = 1.1; Outcome = inactive
LOC442388 — two-siRNA summed score (-2 to +2) = 0; mean protection from cisplatin (shift in death) (%) = 13.4; Outcome = inactive
RECQL — two-siRNA summed score (-2 to +2) = -1; mean protection from cisplatin (shift in death) (%) = -3.1; Outcome = inactive
LOC392159 — two-siRNA summed score (-2 to +2) = 0; mean protection from cisplatin (shift in death) (%) = 12.1; Outcome = inactive
ATAD3A — two-siRNA summed score (-2 to +2) = 0; mean protection from cisplatin (shift in death) (%) = 2.5; Outcome = inactive

Further entries:
gene,reagent,two-siRNA summed score (-2 to +2),mean protection from cisplatin (shift in death) (%),Outcome
GYPE,1,0,6.9,inactive
SHMT1,1,1,8.3,inactive
CHMP2A,1,0,4.7,inactive
NR2E1,1,-1,-4.4,inactive
RAP1B,1,0,7.8,inactive
SPOUT1,1,-1,-25.6,inactive
LOC389819,1,0,4.6,inactive
RUNX3,1,-1,-8.6,inactive
ZP4,1,-1,-12.1,inactive
PYY2,1,-1,-17,inactive
LOC441269,1,0,3.6,inactive
LOC339997,1,2,15.7,active
CARD10,1,0,6.7,inactive
CARMIL2,1,0,-6.8,inactive
ANKRD6,1,1,9.9,inactive
TTI2,1,-1,-8.7,inactive
ZNRF3,1,0,-15.6,inactive
CEBPZ,1,0,-3,inactive
KRTAP13-1,1,0,6.5,inactive
PNPLA4,1,0,6.3,inactive
ARHGAP36,1,0,-4.9,inactive
RIT2,1,0,0.1,inactive
TCEA2,1,0,8,inactive
MERTK,1,1,11.1,inactive
SLC22A4,1,0,13.4,inactive
LMBR1L,1,0,11.4,inactive
DCLK3,1,0,15.4,inactive
EPHB2,1,0,-1.5,inactive
NACA2,1,0,5.2,inactive
NACA2,2,0,13.6,inactive
AP1B1,1,0,0.3,inactive
PIAS4,1,0,2,inactive
LOC158730,1,0,8.1,inactive
LOC391211,1,0,-1.6,inactive
LOC442560,1,0,2,inactive
PCDHGB5,1,0,10.2,inactive
TPGS1,1,0,9.3,inactive
FSCN3,1,0,8.1,inactive
LILRB4,1,0,17.3,inactive
LOC401923,1,-1,-2.3,inactive
LOC340736,1,1,5.4,inactive
LOC392583,1,0,-3.4,inactive
ZNF436,1,0,4.1,inactive
NUP188,1,1,2.2,inactive
LCE3D,1,0,18.5,inactive
OR51F2,1,0,8.5,inactive
TMPRSS12,1,-1,-15.9,inactive
TSPAN6,1,0,11.1,inactive
KLK9,1,0,-10.2,inactive
